Measured values as given in the supplement of paper PMC3334620.
In all, about 33,000 sequences were measured (“E-score (-0.5 to 0.5)”: median about -0.015, highest 2% from about 0.3 on). The list shows a part of the results.

What follows are sequences tested against T1, Abf1 (UniProt P14164) (assay: PBM E-score (8-mer binding enrichment) (E-score (-0.5 to 0.5)); higher = stronger / more preferred TF binding). Conditions: protein concentration: 200 nM; construct: GST-full length.
T1 sequence: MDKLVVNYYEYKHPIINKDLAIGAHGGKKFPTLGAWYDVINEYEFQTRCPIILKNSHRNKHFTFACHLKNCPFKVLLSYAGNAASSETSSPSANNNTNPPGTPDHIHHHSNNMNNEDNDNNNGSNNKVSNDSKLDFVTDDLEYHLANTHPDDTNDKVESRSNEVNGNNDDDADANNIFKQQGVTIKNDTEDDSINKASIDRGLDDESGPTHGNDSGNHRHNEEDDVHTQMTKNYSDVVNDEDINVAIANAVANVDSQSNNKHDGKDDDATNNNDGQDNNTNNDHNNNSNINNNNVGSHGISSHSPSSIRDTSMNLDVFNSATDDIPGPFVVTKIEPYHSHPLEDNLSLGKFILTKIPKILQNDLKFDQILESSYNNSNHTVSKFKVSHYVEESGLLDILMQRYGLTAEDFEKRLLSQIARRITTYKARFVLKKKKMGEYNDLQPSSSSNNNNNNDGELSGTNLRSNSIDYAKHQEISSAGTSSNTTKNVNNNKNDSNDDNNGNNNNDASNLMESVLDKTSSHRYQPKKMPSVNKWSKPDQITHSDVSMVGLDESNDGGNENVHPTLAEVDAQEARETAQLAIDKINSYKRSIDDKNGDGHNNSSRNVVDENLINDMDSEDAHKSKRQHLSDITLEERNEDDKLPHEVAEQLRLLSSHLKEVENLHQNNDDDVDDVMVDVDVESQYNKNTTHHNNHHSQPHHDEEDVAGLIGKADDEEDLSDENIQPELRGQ
Summary of the method: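 Universal all-10-mer Agilent arrays, fresh or stripped once, were converted to double-stranded form by primer extension. GST-tagged yeast transcription factors from PURExpress in vitro transcription/translation, full-length or DNA-binding domain only, were applied at about 100-200 nM and detected with fluorescent anti-GST. After masliner normalisation, the Universal PBM Analysis Suite scored each ungapped eight-base word together with its reverse complement by E-score.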

| Sequence | PBM E-score |
| --- | --- |
| CAGATCTA | -0.174 |
| CGCCCCTC | -0.253 |
| CACGGGTC | -0.0483 |
| GGATTCCA | 0.0862 |
| GATGAGCC | -0.0772 |
| ATGATAAC | 0.339 |
| GGCTTCCA | -0.233 |
| ACAACGTC | 0.0425 |
| AGGTATGA | 0.154 |
| ATGCAACG | 0.0677 |
| ACTGATCA | 0.212 |
| AATTGCTC | -0.24 |
| CGCGAACA | 0.00764 |
| ATGACCGC | -0.0493 |
| CTTTCCGA | -0.246 |
| AGACGCTG | -0.202 |
| GGGTGTTA | -0.00815 |
| CATCGCAG | -0.0266 |
| GCCGTCCA | 0.254 |
| GCCCGAAA | 0.108 |
| ATAGATTA | 0.19 |
| CCGCTTTA | -0.0793 |
| AACGACAA | 0.308 |
| AAATGATG | 0.318 |
| CCCTAGCG | -0.296 |

| Sequence | PBM E-score |
| --- | --- |
| GACGGAGC | -0.0339 |
| ACAATCAA | 0.218 |
| CCGTTATC | 0.233 |
| AGCGAAGG | -0.134 |
| CTCCCTAA | -0.0986 |
| AATGCTCA | -0.0815 |
| AGATTATC | 0.173 |
| CACATTCG | 0.0636 |
| ATTACCGA | 0.0732 |
| AGTCCACG | -0.057 |
| ATCGGTGA | 0.261 |
| CACCGGTA | 0.051 |
| TATTCGAA | 0.0266 |
| CAGCTGTA | -0.258 |
| ACGGCTCG | 0.159 |
| GTCAACAC | -0.00591 |
| CAGAAAAC | 0.0948 |
| CTAGTCCC | 0.00624 |
| AATGTACT | 0.106 |
| CAACAGAC | -0.0516 |
| TGACGGCA | 0.0724 |
| ATCACTAG | 0.357 |
| GGTACACC | -0.0434 |
| AATAGAAT | 0.117 |
| CACTGGTA | 0.0564 |

| Sequence | PBM E-score |
| --- | --- |
| CCATCGTC | -0.00436 |
| GAGTCCAA | -0.134 |
| GTACGCAC | -0.132 |
| ACCGGTCA | -0.103 |
| ATCGCCCG | 0.028 |
| CCAGAACG | 0.123 |
| AGCAGGCT | -0.228 |
| AATTGCCC | -0.0322 |
| CTGACTTA | 0.0943 |
| ACTTCTCT | 0.0409 |
| CTTGAGTC | -0.231 |
| ATAGAGCG | -0.101 |
| ATGGTGCA | -0.018 |
| ACTGTCAA | 0.0961 |
| CTTACATC | -0.15 |
| TACCGTGA | 0.169 |
| GAGACGGA | -0.066 |
| TCATCGAA | 0.0681 |
| AGTATGAT | 0.199 |
| CCGATCGC | 0.00883 |
| AGAGAATC | -0.0971 |
| CGAACACA | 0.0887 |
| GGGAGATA | -0.0848 |
| GGATTGCA | -0.177 |
| AAAGGTGA | 0.103 |

Single values from the list:
For PBM E-score, AGTATGAT has the entry 0.199
For PBM E-score, CCGATCGC has the entry 0.00883
For PBM E-score, CTTGAGTC has the entry -0.231
For PBM E-score, ACTGTCAA has the entry 0.0961
For PBM E-score, GAGACGGA has the entry -0.066
For PBM E-score, TCATCGAA has the entry 0.0681

More results:

| Sequence | PBM E-score |
| --- | --- |
| GGCGAGCA | -0.143 |
| CCGGTGAG | -0.106 |
| GTCTAAAA | 0.102 |
| ACGTTTTG | 0.101 |
| CGCGGTTA | -0.131 |
| GCTAATAA | 0.0283 |
| GATGATAC | 0.297 |
| TACATACA | 0.157 |
| ATAAACGG | 0.273 |
| AGAAAAGG | -0.0809 |
| AATCGTGA | 0.175 |
| CCTATCCG | -0.134 |
| CGGCGACG | 0.21 |
| CGCGTTAA | 0.0631 |
| ACCGTAGG | 0.0666 |
| CACCCCTG | -0.286 |
| GCCCGCGC | -0.0863 |
| AATCGTCA | 0.334 |
| CAGGCAGG | -0.0674 |
| AGTGTCGG | -0.174 |
| CCTGTACG | 0.206 |
| CAATCGGA | -0.00152 |
| CACGTCGG | 0.153 |
| CACGCCAA | -0.133 |
| GACGTATA | 0.249 |

| Sequence | PBM E-score |
| --- | --- |
| ACGTCAGT | 0.104 |
| GATGAGGC | -0.194 |
| AGTGGTTC | -0.213 |
| TTACCAAA | 0.0197 |
| ATAAAAGC | 0.0449 |
| GCCTCTAC | -0.251 |
| GAAGCGCA | -0.203 |
| ACCGATAA | 0.0741 |
| AGCCCTTA | -0.224 |
| GTCGTAAC | 0.229 |
| GGTAATAC | 0.099 |
| ATAAGTTA | 0.0278 |
| AGGGTCAA | -0.0486 |
| CCAGCAGC | -0.186 |
| AGCTCTAC | -0.161 |
| CTGTAGTC | -0.0381 |
| ACTAGCAG | -0.0118 |
| ATGCTGCC | -0.123 |
| CCGAGAAA | 0.0386 |
| GAATTCCC | -0.0895 |
| CCTTGCCA | 0.0541 |
| ATACTAAG | 0.14 |
| CAACCATA | 0.0134 |
| CTCAGTCC | -0.0697 |
| CGCGTGCA | -0.191 |

Two entries from above, bar-delimited.
Sequence | PBM E-score
CCAGCAGC | -0.186
AGCTCTAC | -0.161

Next records follow:

| Sequence | PBM E-score |
| --- | --- |
| CGAATCAA | 0.101 |
| CAGCTATA | -0.191 |
| CCGTGTAG | 0.198 |
| GCGTAAGC | -0.15 |
| ATGCATAG | -0.0232 |
| CGCTAAGA | -0.0828 |
| CCCCAGAG | -0.297 |
| ACCCACTC | -0.18 |
| AATTGACT | -0.00646 |
| AAAGGTGT | 0.0232 |
| CAGGACTC | -0.117 |
| CCTTATTA | 0.0454 |
| AAGGCATT | -0.0671 |
| GACGACGC | 0.3 |
| CGTGTCAC | 0.327 |
| CACGTACC | 0.0446 |
| ATCGGCCA | -0.159 |
| ACCAGCCA | -0.0621 |
| ATACGTCA | 0.204 |
| ACCTCCCA | -0.307 |
| ATGTTCTA | 0.0983 |
| AAACTTGC | -0.0788 |
| AGCGGTCG | -0.0708 |
| ACCCACAA | 0.0306 |
| GACTGACC | -0.231 |

| Sequence | PBM E-score |
| --- | --- |
| CAACTCGG | -0.115 |
| TCCATTCA | 0.0175 |
| AGAGCAGC | -0.152 |
| CCGTCGGA | 0.199 |
| GGCTGCTA | -0.201 |
| AGTGCCAT | -0.185 |
| GACCAATA | 0.00655 |
| GCACTAGC | -0.124 |
| CCGCCCTC | -0.334 |
| CTAGCTGC | -0.114 |
| CAAGTTTC | -0.0682 |
| ACCATGCT | -0.0859 |
| AATTTTAT | 0.189 |
| ACCAATGA | 0.104 |
| CACCATTC | -0.0603 |
| AGGAGTAC | -0.208 |
| AATAAGAG | 0.0298 |
| CCCAAGGG | -0.248 |
| GTGACGAA | 0.315 |
| ACCGGGAC | -0.144 |
| ATAGTTGG | -0.149 |
| AGTCCGAA | 0.00015 |
